Test results: patent publication US4849345A, “L-phenylalanine dehydrogenase and use thereof” (priority 1985, dated 1989)

Columns and labels:
[1] = target: T1, L-phenylalanine dehydrogenase produced by Bacillus sp. SCRC-R79a (Lysinibacillus sphaericus, UniProt P23307); assay: Substrate and coenzyme specificity, oxidative deamination (Bacillus enzyme); format: biochemical; set-up: inoculated with Bacillus sp; endogenous in cells; host or cells: Bacillus sp; enzyme purified in house
T1 sequence (P23307 1-381): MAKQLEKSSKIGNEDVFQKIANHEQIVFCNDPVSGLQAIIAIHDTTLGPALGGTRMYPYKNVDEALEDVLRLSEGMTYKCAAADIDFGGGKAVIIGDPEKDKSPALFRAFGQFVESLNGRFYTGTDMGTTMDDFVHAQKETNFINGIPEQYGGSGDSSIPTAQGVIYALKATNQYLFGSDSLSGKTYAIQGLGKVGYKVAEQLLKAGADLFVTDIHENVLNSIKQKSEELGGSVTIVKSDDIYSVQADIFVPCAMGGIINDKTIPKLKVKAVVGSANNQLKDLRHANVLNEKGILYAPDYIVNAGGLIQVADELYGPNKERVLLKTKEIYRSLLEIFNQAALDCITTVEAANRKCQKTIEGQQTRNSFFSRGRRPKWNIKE
Experimental: The substrate concentration is 10 mM except for the L-tyrosine concentration which is 1.4 mM.

[2] = target: T2, L-phenylalanine dehydrogenase produced by Sporosarcina ureae SCRC-R04 (Sporosarcina ureae, UniProt P97014); assay: Substrate and coenzyme specificity, oxidative deamination (Sporosarcina enzyme); format: biochemical
T2 sequence (P97014 1-379): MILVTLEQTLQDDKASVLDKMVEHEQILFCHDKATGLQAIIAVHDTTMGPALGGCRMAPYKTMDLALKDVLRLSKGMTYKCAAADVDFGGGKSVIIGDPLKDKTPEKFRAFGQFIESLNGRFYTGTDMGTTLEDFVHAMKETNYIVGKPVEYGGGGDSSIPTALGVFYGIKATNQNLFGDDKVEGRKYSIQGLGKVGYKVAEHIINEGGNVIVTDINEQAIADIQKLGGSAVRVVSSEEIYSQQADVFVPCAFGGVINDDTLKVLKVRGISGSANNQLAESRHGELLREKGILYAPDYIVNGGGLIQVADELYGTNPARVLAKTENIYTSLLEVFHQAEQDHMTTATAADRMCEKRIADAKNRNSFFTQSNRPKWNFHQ
Experimental: The substrate concentration is 10 mM, except for the L-tyrosine concentration which is 1.4 mM.

## NCCC[C@H](N)C(=O)O [L-ornithine]
[1]
  action of the enzyme on the amino acid as substrate (in words): cannot serve as a substrate
[2]
  action of the enzyme on the amino acid as substrate (in words): cannot serve as a substrate
